Experimental data: PMC12743511, “HSD17β11 regulates PLIN5-ATGL mediated lipolysis, but not hepatic lipid metabolism in mice” (Journal of Lipid Research, 2025)
These are yes or no findings as the source states them, for the method shown. Binding seen in cells or lysates may run through a third protein. Here binding means that the protein was enriched with, or labelled near, the bait; the list need not be complete.

By UniProt entry, the sequences of proteins in these tests, tags left out. Where a name states a change or a piece, a line headed by the entry shows the natural chain unless it says otherwise.
UniProt Q8NBQ5: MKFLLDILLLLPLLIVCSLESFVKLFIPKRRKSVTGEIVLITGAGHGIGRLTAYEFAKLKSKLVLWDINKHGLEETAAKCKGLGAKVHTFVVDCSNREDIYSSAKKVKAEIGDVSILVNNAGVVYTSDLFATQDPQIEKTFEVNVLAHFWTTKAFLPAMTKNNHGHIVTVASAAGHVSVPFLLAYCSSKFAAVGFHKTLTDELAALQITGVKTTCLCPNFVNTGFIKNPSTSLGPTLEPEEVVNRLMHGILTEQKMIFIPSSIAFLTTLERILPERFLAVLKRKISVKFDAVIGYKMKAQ

Biological target: T1, 3HA-PLIN5 (UniProt Q00G26)
T1 sequence: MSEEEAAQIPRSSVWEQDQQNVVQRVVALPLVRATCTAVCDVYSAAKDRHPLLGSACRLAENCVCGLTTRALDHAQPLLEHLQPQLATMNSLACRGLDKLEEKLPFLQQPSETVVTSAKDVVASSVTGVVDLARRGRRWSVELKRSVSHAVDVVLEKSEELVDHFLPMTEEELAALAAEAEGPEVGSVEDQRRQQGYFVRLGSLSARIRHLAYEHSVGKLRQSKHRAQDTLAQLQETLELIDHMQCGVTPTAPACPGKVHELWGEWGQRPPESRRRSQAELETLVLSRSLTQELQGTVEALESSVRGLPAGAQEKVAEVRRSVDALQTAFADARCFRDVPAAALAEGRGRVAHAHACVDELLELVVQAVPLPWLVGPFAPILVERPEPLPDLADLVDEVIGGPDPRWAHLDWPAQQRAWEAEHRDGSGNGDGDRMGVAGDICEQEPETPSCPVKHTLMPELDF
Experiment: affinity purification with mass spectrometry; anti-HA agarose immunoprecipitation from lysates (1% n-dodecyl-β-D-maltoside, 150 mmol/L NaCl, HEPES pH 7.4) of HEK293T cells stably expressing 3HA-PLIN5 versus 3HA-eGFP, 4°C overnight; label-free proteomics

HSD17β11 (hydroxysteroid 17β dehydrogenase 11), endogenous (from UniProt Q8NBQ5)
binding: binds
